From patent publication CN113336847A
Results are given in words; binding and its absence hold for the method and conditions named. Some entries that bind do so weakly or less than the wild type.

Amino acid sequences for entries named in this document (tags omitted). Residues count along the entry.
UniProt Q15116, residues 25-288: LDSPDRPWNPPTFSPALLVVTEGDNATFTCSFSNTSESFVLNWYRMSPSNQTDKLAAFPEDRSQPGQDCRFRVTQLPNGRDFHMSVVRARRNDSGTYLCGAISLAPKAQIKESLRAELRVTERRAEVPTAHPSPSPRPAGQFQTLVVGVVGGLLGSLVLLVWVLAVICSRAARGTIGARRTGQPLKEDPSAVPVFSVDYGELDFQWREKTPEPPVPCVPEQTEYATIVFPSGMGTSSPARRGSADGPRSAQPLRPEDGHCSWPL

Target: PD-1 expressed on CHO cells (CHO-PD-1) (human) (UniProt Q15116)
Assay: flow cytometry, 293T transfection supernatant on CHO-PD-1 cells, goat anti-mouse IgG Fc-FITC

binding: binds
B1: PD1-05-4D5-1A9重组抗体 (secreted into 293T supernatant) (antibody, V domains shown)
VH: EVNLVESGGGLVKPGGSLKLSCAASGFTFSSYGMSWVRQTPEKRLEWVATISGGGSNIYYPDSVKGRFTISRDNAQNNLYLQMSSLRSEDTAFYFCARQRDVDWFAYWGQGTLVTVSA
VL: DILLTQSPATLSVTPGDSVSLSCRASQSISNNLHWYQQKSHESPRLLIKYASQSISGIPSRFSGSGSGTDFTLSINTVETEDFGMYFCQQTNSWPLTFGAGTKLELK
